Publication PMC10857193
These are yes or no findings as the source states them, for the method shown. Binding seen in cells or lysates may run through a third protein. A yes stands for co-enrichment or nearness to the bait. Other partners may have been found.

Chains of the proteins cited; added tags and fusions are not shown. Lines headed by an entry give the natural chain unless they say otherwise; changes in a name come on top.
UniProt Q9FMP5: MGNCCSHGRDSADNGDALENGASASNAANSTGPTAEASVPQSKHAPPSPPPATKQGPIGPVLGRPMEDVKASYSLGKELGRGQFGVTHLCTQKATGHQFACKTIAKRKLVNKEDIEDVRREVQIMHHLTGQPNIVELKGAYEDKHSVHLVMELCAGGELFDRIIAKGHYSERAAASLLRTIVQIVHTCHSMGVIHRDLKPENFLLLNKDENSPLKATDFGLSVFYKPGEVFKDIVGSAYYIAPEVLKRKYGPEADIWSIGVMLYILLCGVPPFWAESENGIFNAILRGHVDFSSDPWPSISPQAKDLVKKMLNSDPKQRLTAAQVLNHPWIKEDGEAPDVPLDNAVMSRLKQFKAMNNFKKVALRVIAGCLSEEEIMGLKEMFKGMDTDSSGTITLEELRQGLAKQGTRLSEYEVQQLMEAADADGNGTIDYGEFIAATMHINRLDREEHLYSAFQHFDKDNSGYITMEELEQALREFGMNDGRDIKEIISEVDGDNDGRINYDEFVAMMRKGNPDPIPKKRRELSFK
UniProt A0A024AYA4: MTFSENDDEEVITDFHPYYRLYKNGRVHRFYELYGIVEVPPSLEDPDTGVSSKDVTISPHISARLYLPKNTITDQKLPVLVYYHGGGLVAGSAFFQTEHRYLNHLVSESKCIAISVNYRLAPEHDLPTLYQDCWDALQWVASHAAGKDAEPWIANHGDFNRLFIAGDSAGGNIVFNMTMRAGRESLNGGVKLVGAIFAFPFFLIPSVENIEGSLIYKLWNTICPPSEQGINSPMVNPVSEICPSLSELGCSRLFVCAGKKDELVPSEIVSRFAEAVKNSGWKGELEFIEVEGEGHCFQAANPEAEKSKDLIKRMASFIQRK
UniProt A0A1S3XWB5: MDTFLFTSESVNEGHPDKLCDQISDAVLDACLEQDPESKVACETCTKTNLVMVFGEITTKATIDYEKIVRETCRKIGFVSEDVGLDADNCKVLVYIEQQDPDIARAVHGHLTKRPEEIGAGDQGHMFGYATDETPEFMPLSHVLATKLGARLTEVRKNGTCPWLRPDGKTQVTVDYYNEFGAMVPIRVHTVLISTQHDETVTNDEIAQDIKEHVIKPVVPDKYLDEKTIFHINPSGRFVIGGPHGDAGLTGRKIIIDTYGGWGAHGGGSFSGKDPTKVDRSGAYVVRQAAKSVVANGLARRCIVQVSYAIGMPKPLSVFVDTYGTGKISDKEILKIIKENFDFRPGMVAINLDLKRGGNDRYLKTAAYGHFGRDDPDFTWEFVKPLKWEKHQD
UniProt A0A1S4CMX7: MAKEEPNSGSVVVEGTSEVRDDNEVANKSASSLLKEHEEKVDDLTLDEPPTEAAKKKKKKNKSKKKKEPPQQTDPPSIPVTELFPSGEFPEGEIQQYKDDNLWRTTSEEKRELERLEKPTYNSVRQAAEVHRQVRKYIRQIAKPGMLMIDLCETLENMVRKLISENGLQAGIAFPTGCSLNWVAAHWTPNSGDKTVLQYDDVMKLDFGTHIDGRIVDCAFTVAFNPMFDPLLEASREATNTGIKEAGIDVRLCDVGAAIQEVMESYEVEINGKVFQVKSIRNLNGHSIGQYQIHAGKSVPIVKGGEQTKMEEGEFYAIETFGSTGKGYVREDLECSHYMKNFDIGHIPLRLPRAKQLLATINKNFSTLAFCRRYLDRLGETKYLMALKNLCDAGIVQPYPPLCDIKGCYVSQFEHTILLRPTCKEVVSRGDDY
UniProt A0A0S0N4U0: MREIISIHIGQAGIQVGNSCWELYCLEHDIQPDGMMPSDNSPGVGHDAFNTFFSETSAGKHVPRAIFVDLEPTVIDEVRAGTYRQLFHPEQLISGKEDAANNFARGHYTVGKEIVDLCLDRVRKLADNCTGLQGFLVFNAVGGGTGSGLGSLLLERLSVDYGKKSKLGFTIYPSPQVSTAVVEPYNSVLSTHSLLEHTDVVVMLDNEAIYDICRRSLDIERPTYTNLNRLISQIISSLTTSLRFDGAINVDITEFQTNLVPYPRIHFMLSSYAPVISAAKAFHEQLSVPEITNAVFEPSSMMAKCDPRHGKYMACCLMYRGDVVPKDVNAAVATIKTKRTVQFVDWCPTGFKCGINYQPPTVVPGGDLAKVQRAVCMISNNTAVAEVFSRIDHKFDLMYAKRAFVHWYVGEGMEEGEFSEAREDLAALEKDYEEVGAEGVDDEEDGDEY
UniProt A0A1S4AFS9: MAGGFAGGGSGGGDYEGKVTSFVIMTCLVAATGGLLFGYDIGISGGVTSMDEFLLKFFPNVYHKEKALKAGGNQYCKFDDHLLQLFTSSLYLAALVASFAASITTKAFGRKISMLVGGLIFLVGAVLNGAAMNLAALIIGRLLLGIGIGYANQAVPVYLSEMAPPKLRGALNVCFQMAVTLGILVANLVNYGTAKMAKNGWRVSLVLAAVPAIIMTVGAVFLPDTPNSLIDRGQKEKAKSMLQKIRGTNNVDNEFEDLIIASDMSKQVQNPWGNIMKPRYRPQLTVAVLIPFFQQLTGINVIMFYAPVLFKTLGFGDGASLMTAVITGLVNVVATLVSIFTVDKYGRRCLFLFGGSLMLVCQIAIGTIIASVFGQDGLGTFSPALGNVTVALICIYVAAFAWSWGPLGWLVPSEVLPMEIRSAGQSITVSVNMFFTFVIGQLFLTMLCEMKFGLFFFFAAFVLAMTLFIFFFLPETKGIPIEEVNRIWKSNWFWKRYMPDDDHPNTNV
UniProt A0A1S3Z926: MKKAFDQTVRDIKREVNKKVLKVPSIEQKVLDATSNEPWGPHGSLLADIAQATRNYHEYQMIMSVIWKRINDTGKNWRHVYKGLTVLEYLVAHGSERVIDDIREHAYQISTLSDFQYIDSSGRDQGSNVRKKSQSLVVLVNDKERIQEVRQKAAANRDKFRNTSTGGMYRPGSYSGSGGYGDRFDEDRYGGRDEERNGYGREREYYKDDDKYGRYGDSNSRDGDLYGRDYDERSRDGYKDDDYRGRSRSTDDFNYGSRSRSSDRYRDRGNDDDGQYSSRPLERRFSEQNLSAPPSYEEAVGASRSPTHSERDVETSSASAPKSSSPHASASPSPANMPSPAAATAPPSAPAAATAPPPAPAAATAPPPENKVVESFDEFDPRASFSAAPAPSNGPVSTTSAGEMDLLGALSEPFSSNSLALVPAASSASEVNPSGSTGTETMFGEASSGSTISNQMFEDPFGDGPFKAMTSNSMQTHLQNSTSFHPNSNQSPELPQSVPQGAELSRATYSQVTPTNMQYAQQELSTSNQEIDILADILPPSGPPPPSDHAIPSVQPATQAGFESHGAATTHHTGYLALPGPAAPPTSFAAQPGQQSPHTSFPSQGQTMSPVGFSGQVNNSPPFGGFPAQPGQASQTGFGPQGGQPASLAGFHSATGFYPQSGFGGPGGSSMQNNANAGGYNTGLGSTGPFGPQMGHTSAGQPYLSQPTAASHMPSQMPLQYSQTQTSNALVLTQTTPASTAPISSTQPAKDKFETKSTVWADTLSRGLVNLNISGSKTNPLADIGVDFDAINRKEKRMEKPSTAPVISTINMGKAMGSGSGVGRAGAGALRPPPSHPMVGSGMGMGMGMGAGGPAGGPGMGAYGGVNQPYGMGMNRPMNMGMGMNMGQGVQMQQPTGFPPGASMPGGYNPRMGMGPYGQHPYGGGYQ
UniProt A0A1S4CPM1: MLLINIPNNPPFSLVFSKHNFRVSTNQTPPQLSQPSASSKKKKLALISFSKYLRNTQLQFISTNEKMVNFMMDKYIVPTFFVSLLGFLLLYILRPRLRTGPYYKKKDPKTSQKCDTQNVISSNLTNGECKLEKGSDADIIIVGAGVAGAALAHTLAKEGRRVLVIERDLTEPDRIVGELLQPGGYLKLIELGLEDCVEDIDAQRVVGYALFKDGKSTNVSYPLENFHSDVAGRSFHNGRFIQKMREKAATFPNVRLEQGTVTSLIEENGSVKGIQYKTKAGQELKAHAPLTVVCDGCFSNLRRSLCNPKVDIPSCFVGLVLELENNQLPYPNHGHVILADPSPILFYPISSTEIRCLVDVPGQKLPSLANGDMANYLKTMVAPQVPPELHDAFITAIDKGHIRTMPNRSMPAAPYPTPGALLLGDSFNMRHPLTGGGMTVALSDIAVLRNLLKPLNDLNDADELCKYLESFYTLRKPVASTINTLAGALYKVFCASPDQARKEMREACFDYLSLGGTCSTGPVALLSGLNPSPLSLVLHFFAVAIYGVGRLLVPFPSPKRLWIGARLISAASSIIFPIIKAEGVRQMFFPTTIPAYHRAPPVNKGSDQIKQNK

B1: NtGF14 (protein, UniProt Q75ZD6 1-258)
chain: MASPREENVYMAKLAEQAERYEEMVEFMEKVVAAADGAEELTVEERNLLSVAYKNVIGARRASWRIISSIEQKEESRGNEDHVASIKEYRSKIETELTSICNGILKLLDSKLIGAAATGDSKVFYLKMKGDYHRYLAEFKTGAERKEAAENTLSAYKSAQDIANTELAPTHPIRLGLALNFSVFYYEILNSPDRACNLAKQAFDEAIAELDTLGEESYKDSTLIMQLLRDNLTLWTSDMQDDGTDEIKEAAKPDNEQQ
B2: N. tabacum A0A1S4AKF1 (homolog of Magnesium Transporter 2) (protein, UniProt A0A1S4AKF1 1-445)
chain: MADLKERLLPPKPASAANLREVAFRPPASGRQPFQGIDVLGLKKRGQGLRSWIRVDTSGNSQVIEVDKFTMMRRCDLPARDLRLLDPLFVYPSTILGREKAIVVNLEQIRCIITADEVLLLNSLDSYVLQYVVELQRRLQAAGAGDVWQPEGDLSRRRGSRNLENMFGTPSPDYLPFEFRALEVALEAACTFLDSQAAELEIEAYPLLDELTSKISTLNLERVRRLKSRLVALTRRVQKVRDEIEQLMDDDGDMAEMYLTEKKRRMELSCYGDQSLLGYRSTDGALSVSAPVSPVSSPPESRRLEKSLSIARSRHESMRSSESGAETQSIEELEMLLEAYFVVIDSTLNKLTSLKEYIDDTEDFINIQLDNVRNQLIQFELLLTTATFVVAIFGVVAGIFGMNFEIPMFNQPDAFKWVLIITGVTGAVIFFAFLWFFKYRRLMPL
B3: N. tabacum A0A1S4C178 (homolog of Magnesium Transporter 7) (protein, UniProt A0A1S4C178 1-372)
chain: MKTGVSRSWILVDSKGESSILDLDKYAIMKRVPIHARDLRILDPLLSYPSAILGREKAIVLNLEHIKAIITTDEVLLRDPLDDNVAPVVEELQRRLPLPAIAFGEGEDDDQPAVNGARTEMQNVEPTEFPFEFRALEVALEGVCSYLDTQTRELETAAYPALDELTSKISSRNLDRVRKLKSAMTRLTSRVQKVRDDLEQLLEDDDDMADLYLSRKVAGASSPLSGQGALYWSPDSPKLLSKTSKISGLTQEETDVEELEMLLEAYFVQIESTMNKLTTLREYIDDTEDYINIQLDNHRNQLIQLELFLSSGTVCLTVYSLVAAIFGMNIPYPWKKDHGYIFKWVVMLAGIASASIFLSIISYARHKGLVGS

target: PiCDPK1:GFP (Petunia) (UniProt Q9FMP5); experiment: affinity purification with mass spectrometry; GFP-trap magnetic beads capture PiCDPK1:GFP from cleared lysate of germinated transgenic N. tabacum pollen; 2 h at 4 °C; 25 mM HEPES pH 7.4, 10 mM MgCl2, 100 mM NaCl, 10% glycerol, 1 mM DTT, 1 mM CaCl2, 1% Triton-X 100; three washes; on-bead trypsin digestion, LC-MS/MS; control pollen expressing GFP alone; hits filtered (>=2 of 3 replicates, >1.75-fold enrichment, >1 unique peptide, plasma membrane or cytosol)

binding, binds:
N. tabacum A0A024AYA4 (homolog of Carboxyesterase 13) (from UniProt A0A024AYA4)
N. tabacum A0A1S3XWB5 (homolog of S-adenosylmethionine synthetase 3) (from UniProt A0A1S3XWB5)
N. tabacum A0A1S4CMX7 (homolog of Methionine aminopeptidase 2b) (from UniProt A0A1S4CMX7)
N. tabacum A0A0S0N4U0 (homolog of Tubulin alpha-3) (from UniProt A0A0S0N4U0)
N. tabacum A0A1S4AFS9 (homolog of Sugar Transport Protein 10) (from UniProt A0A1S4AFS9)
N. tabacum A0A1S3Z926 (homolog of Epsin 3) (from UniProt A0A1S3Z926)
N. tabacum A0A1S4CPM1 (homolog of Squalene epoxidase 3) (from UniProt A0A1S4CPM1)
B1
B2
B3
